# In all, about 340,000 compounds went through this assay and about 6,200 (1.8%) were called active. Inconclusive means that the source gave no clear call. Such entries were picked first, then a sample of the others. The call rests on the fitted dose curve; in most records, active means well fitted activation curve with a large enough effect; inconclusive means small, poorly fitted or top-dose-only effect; inactive means no such curve, though single readings can be large or run the other way. A potency beside an inconclusive call is a rough fit, not a confirmed value.
# Experiment: A quantitative high throughput screen for small molecules that induce DNA re-replication in SW480 colon adenocarcinoma cells. Further: nearly all actives have a fitted effect of over 55% in size. On re-replication activation: % of control where 0% means no effect.
# Conditions: Hoechst DNA content imaging, 48 h; re-replication activation: at 46.1 µM (top of the series) unless noted
# Outline: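 250 cells/well; 23 nL cpd via pin tool; 48 hr, 37 C, 5% CO2; Hoechst 40 min; imager read of total nuclear intensity, ex 405/em 500-530 nm.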
# Potency means the concentration at half of the fitted maximal effect.
SMILES,Potency,re-replication activation
NS(=O)(=O)c1ccc(-c2ccc(/C=C3\C(=O)Nc4cc(Cl)ccc43)o2)cc1,"inconclusive: 23.1 µM [activator, partial curve, poor fit]",–
COc1ccc(C(=O)N/N=C/c2cccc3cccnc23)cc1,"inconclusive: 20.6 µM [activator, partial curve, poor fit]",–
COc1ccc(OCCC(=O)OCC(=O)Nc2cccc(S(=O)(=O)N3CCCCC3)c2)cc1,"inconclusive: 20.6 µM [activator, single point]",–
Cc1cc(Nc2cc(Cl)nc(Sc3ccc(NC(=O)C4CC4)cc3)n2)n[nH]1,active: 20.6 µM,–
CC12CCC(C)(c3nc4ccccc4nc31)C2(C)C,inactive,–
CC(C)(C)OC(=O)NCCCC[C@H](NC(=O)c1nc[nH]c1C(=O)NC(c1ccccc1)c1ccccc1)C(=O)OC(C)(C)C,"inconclusive: 25.9 µM [activator, partial curve, poor fit]",–
COc1ccc(NC(=O)C2CCN(S(=O)(=O)c3c(C)nn(C)c3C)CC2)cc1,"inconclusive: 8.91 µM [activator, single point]",–
Cc1cc(C)n(-c2cccc3cccnc23)n1,inactive,–
CC(=O)c1cnc2n(c1=O)CCS2,active: 13 µM,–
CCOC(=O)CSc1nc(N2CCOCC2)c2c(c1C#N)CC(C)(C)OC2,inactive,–
COC(=O)c1cc(-c2ccc(Br)cc2)on1,inactive,–
COc1cc(OC)c(C2Nc3ccccc3NC3=C2C(=O)CC(C)(C)C3)cc1OC (configuration not stated),–,inconclusive: 29.3% [activator]
Cc1ccc(C)n1-c1ccc(C(=O)/C=C/N(C)C)cc1,"inconclusive: 18.4 µM [activator, single point]",–
COc1ccccc1Oc1ccc(S(=O)(=O)N2CCOCC2)cc1S(=O)(=O)N1CCOCC1,inactive,–
c1ccc2c(c1)ncn2CCCCOc1ccc2c(c1)CCC2,"inconclusive: 18.4 µM [activator, single point]",–
COc1ccc(OC)c(NC(=O)c2cc(-c3cc(Cl)ccc3O)n[nH]2)c1,"inconclusive: 23.1 µM [activator, single point]",–
Cc1ccc(-c2ccc(=O)n(Cc3cc(C)ccc3C)n2)cc1,"inconclusive: 29.1 µM [activator, single point]",–
Cc1ccc(S(=O)(=O)NCc2ccccc2)s1,–,inconclusive: -4.01% [activator]
CCOC(=O)/C=c1/s/c(=C\c2c(OC)ccc3ccccc23)c(=O)n1CC(=O)NCC1CCCO1 (configuration not stated),active: 14.6 µM,–
CCOC(=O)COc1ccccc1C(=O)c1cnn(-c2ccccc2)c1,"inconclusive: 2.31 µM [activator, partial curve, poor fit]",–
C#CCOCCOCCOCCNc1nc(N2CCOCC2)nc(N2CCN(C(=O)[C@H]([C@@H](C)CC)n3cc([C@@H](N)CC(C)C)nn3)CC2)n1,"inconclusive: 29.1 µM [activator, single point]",–
CC(/C=C1\SC(=S)N(CCC(=O)Nc2ccc(O)cc2)C1=O)=C\c1ccccc1,"inconclusive: 29.1 µM [activator, single point]",–
CC(=O)NC(c1ccccc1)c1cccnc1 (configuration not stated),"inconclusive: 29.1 µM [activator, single point]",–
Cc1onc(-c2ccccc2)c1C(=O)N/N=C/c1cc(Br)c(Br)o1,inactive,–

SMILES,Potency,re-replication activation
C/C(=N/NS(=O)(=O)c1cccc([N+](=O)[O-])c1)c1ccncc1,"inconclusive: 16.4 µM [activator, partial curve, poor fit]",–
O=C(c1ccco1)N1N=C(c2ccco2)CC1c1ccc(Cl)cc1Cl (configuration not stated),–,inconclusive: -43.7% [activator]
CC1c2[nH]c3ccccc3c2CCN1C(=O)Nc1ccccc1 (configuration not stated),"inconclusive: 29.1 µM [activator, single point]",–
COc1ccc(OC)c(Nc2cc(C)nc3nc(C)nn23)c1,"inconclusive: 13 µM [activator, partial curve]",–
CCCC(O)C(CC)CO (configuration not stated),inactive,–
COc1ccc(C(=O)ON=C2C=C(C)C(=O)C(C)=C2)cc1,"inconclusive: 23.1 µM [activator, partial curve, poor fit]",–
CCN(CC(=O)Nc1ccc2c(c1)OCCO2)S(=O)(=O)c1cccs1,inactive,–
Cc1cc(N2CCN(c3ccc([N+](=O)[O-])c4cccnc34)CC2)c2ccccc2n1,inactive,–
Brc1cc(Br)c2ncnc(N3CCCCC3)c2c1,"inconclusive: 18.4 µM [activator, single point]",–
Cc1cccc(OCC(=O)Nc2ccc(N3CCN(C(=O)c4ccccc4)CC3)cc2)c1,inactive,–
Cc1ccc2nc3c(cc(S(=O)(=O)c4ccccc4)c(=N)n3C3CCCC3)c(=O)n2c1,"inconclusive: 20.6 µM [activator, single point]",–
FC(F)(F)c1cccc(NC(=S)Nc2ccc(Cl)c(Cl)c2)c1,"inconclusive: 29.1 µM [activator, single point]",–
O=S(=O)(c1ccc2c(c1)CCN2)N1CCCC1,inactive,–
Cc1ccc(/C=N/NC(=O)c2nnn(-c3nonc3N)c2-c2cccs2)cc1,"inconclusive: 18.4 µM [activator, single point]",–
CCOC(=O)c1ccc(NC(=O)c2nc[nH]c2C(=O)NC)cc1,inactive,–
N=c1c(C(=O)NCc2ccccc2)cc2c(=O)n3ccccc3nc2n1CCCN1CCOCC1,active: 9.2 µM,–
O=C(COc1ccc(/C=N/NS(=O)(=O)c2ccccc2)cc1)NCCc1ccccc1,"inconclusive: 29.1 µM [activator, partial curve, poor fit]",–
COc1ccc(-c2noc(CN3CCN(c4ccccc4)CC3)n2)cc1,inactive,–
CCN1C(=NCCOC)N[C@@H](CCc2ccccc2)[C@H](C(=O)OC)[C@H]1C,inactive,–
COCCNC(=O)/C(C#N)=C/c1ccccc1Br,"inconclusive: 18.4 µM [activator, single point]",–
O=C(/C=C/c1ccc(OCCCF)cc1)Nc1ccnc(-c2ccncc2)n1,inactive,–
CCOc1cc(C)ccc1OCc1nnc(SCC(=O)Nc2cccc(C(=O)O)c2)n1-c1ccccc1,"inconclusive: 0.231 µM [activator, full curve, poor fit]",–
COc1cc2cncc(Cc3ccccc3)c2cc1O,inactive,–
CCOC(=O)NC(NC(=S)Nc1ccc(OC)cc1)C(Cl)(Cl)Cl (configuration not stated),inactive,–

# Arranged by molecular weight (rising): three of the compounds above
SMILES,Potency,re-replication activation
COc1ccc(C(=O)ON=C2C=C(C)C(=O)C(C)=C2)cc1,"inconclusive: 23.1 µM [activator, partial curve, poor fit]",–
CCN1C(=NCCOC)N[C@@H](CCc2ccccc2)[C@H](C(=O)OC)[C@H]1C,inactive,–
Cc1cc(N2CCN(c3ccc([N+](=O)[O-])c4cccnc34)CC2)c2ccccc2n1,inactive,–

# Additional compounds:

SMILES,Potency,re-replication activation
O=C(Nn1c(COc2ccccc2)nc2ccccc2c1=O)C(Cl)(Cl)Cl,active: 18.4 µM,–
COc1ccccc1NC(=O)c1csc2c1CCCC2,inactive,–
COc1cccc(NC(=S)/C(=C(\[O-])c2cc(C)n(-c3ccccc3F)c2C)[n+]2ccc(N(C)C)cc2)c1,"inconclusive: 18.4 µM [activator, single point]",–
S=C(NCCc1ccccc1)N/N=C/c1ccc(Cl)cc1,"inconclusive: 6.51 µM [activator, partial curve, poor fit]",–
NS(=O)(=O)c1ccc(N2N=C(c3ccccc3)CC2c2cccc(F)c2)cc1 (configuration not stated),active: 4.11 µM,–
c1ccc2c(CCN3CCNC[C@H]3Cc3cccc4ccccc34)cccc2c1,"inconclusive: 18.4 µM [activator, single point]",–
Cc1ccc(-c2nc(CS(=O)CC(=O)NCc3ccc(F)cc3)c(C)o2)cc1 (configuration not stated),inactive,–
O=C1CN(C(=O)/C=C/c2ccc(Cl)cc2Cl)CCN1,"inconclusive: 3.16 µM [activator, single point]",–
COc1ccc(CCN(C)C(=O)CSc2nc3ccccc3c(=O)n2CC2CCCO2)cc1OC (configuration not stated),inactive,–
CCOC(=O)C(C)Oc1cccc2c(=O)n(CC(=O)NCc3ccc(F)cc3)ccc12 (configuration not stated),"inconclusive: 7.31 µM [activator, partial curve, poor fit]",–
Cc1ccc2nc(SCc3nnc(-c4ccccc4[N+](=O)[O-])o3)c(C#N)cc2c1,"inconclusive: 31.6 µM [activator, single point]",–
O=C(C[n+]1ccn(-c2ccccc2)c1)c1ccc([N+](=O)[O-])cc1,–,inconclusive: 136% [activator]
O=C(CN1C(=O)c2cccc3cccc1c23)N1CCN(c2ccccc2)CC1,"inconclusive: 29.1 µM [activator, single point]",–
Cc1ccc(C2=NC3(CCCCC3)NC2=S)cc1,"inconclusive: 6.51 µM [activator, single point]",–
Cn1cc(C(=O)c2ccc(Cl)cc2Cl)cc1C(=O)N/N=C(\N)COc1ccc(Cl)cc1Cl,active: 9.2 µM,–
COc1ccc(C2=CC(=O)CC(c3ccc(OC)cc3)C2)cc1 (configuration not stated),"inconclusive: 3.16 µM [activator, partial curve, poor fit]",–
CC(=O)NC(CC(C)C)C(=O)O (configuration not stated),"inconclusive: 0.206 µM [activator, single point]",–
O=C(Nc1ccc(Cl)cc1)N1CCCN(Cc2ccc(F)cc2)C1,"inconclusive: 18.4 µM [activator, single point]",–
CC1CCN(c2ccc3c(c2)S(=O)(=O)c2cccc(C(=O)NC4CCCCC4)c2C3=O)CC1,"inconclusive: 29.1 µM [activator, single point]",–
COc1ccc(-c2noc(-c3ccc(Cl)cc3)n2)cc1,inactive,–
CCc1ccccc1NC(=O)Nc1cccn(Cc2ccccc2F)c1=O,"inconclusive: 18.4 µM [activator, single point]",–
COc1cc(CNc2ccc(N3CCCC3)cc2)ccc1OCc1ccccc1,"inconclusive: 29.1 µM [activator, single point]",–
N#CCCN(Cc1cccnc1)S(=O)(=O)c1ccc2ccccc2c1,inactive,–
COc1ccc(CCNC(=O)c2ccc(CNc3nc(=S)[nH]c4ccccc34)cc2)cc1OC,inactive,–

# — PubChem BioAssay AID624297 (National Center for Advancing Translational Sciences (NCATS), 2012)
